# Screening data, single-dose tests

Sequences of proteins named here, by UniProt entry; tags and fusion partners are left off. Residues count along the entry.
UniProt P9WPC5, whole entry: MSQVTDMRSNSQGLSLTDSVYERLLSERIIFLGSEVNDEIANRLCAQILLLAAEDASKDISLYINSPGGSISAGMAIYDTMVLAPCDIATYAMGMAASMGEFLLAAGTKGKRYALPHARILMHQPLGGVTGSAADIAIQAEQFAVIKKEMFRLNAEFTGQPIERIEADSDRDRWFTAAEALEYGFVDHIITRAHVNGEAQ
UniProt P9WPC3, whole entry partner: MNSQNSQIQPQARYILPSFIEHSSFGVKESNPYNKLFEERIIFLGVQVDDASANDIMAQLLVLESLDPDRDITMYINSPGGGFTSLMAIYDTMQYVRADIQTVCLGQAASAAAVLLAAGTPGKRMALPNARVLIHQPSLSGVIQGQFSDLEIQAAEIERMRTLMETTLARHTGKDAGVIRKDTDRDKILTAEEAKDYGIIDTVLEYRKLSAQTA
UniProt I6X8D2, whole entry: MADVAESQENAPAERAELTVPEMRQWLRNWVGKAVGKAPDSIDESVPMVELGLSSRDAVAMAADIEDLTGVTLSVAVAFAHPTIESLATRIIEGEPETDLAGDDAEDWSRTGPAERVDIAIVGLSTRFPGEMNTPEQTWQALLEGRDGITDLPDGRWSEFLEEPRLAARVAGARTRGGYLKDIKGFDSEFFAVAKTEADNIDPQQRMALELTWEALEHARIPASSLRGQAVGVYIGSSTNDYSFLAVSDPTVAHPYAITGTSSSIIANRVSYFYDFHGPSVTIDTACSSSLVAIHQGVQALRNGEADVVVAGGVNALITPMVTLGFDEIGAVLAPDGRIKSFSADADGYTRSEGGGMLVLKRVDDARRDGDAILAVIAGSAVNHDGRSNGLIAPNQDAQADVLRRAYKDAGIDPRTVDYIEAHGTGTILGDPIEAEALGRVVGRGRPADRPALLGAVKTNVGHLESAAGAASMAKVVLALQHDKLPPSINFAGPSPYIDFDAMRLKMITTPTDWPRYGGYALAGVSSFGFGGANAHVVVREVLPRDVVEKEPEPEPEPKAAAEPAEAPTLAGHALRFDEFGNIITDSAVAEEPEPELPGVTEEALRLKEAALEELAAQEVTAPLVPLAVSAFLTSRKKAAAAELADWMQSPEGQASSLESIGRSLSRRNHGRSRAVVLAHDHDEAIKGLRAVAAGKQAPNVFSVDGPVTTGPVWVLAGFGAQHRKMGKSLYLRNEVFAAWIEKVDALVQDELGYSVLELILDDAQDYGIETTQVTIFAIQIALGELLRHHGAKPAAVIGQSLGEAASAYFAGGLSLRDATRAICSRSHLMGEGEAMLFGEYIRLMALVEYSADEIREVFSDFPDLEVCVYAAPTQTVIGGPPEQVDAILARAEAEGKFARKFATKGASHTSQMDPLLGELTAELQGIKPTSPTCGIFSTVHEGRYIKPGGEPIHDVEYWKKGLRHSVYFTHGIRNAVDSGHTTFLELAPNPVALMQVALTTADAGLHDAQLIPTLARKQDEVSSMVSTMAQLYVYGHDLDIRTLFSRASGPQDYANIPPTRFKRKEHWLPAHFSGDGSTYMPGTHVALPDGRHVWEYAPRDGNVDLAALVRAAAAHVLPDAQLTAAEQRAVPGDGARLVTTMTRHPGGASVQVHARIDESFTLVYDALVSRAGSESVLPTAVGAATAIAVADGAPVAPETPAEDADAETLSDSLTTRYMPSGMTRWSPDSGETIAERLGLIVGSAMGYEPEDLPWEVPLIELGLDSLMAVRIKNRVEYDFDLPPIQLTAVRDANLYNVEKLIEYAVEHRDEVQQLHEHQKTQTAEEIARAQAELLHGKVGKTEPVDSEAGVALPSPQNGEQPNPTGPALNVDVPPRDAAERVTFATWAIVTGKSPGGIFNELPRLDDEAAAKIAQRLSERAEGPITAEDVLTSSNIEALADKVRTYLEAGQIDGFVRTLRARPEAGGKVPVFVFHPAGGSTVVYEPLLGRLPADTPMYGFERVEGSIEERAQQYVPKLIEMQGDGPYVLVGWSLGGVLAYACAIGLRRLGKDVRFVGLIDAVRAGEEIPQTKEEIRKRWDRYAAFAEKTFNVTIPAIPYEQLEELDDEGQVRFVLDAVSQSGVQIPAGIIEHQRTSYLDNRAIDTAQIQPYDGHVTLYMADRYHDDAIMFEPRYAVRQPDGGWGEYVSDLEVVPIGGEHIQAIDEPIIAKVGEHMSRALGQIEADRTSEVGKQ
UniProt P9WNZ1, whole entry: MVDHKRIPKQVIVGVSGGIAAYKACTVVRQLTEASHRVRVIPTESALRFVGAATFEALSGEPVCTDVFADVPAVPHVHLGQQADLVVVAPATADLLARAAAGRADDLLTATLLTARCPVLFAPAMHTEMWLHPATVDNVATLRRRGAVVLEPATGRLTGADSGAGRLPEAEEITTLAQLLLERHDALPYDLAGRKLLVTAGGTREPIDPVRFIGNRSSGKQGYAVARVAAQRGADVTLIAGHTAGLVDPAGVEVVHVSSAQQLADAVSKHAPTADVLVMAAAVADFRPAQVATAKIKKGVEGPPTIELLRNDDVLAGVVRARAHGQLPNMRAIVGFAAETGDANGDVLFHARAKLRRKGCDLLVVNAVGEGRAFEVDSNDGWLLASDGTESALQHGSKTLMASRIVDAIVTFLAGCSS
UniProt A4I591, 1-473: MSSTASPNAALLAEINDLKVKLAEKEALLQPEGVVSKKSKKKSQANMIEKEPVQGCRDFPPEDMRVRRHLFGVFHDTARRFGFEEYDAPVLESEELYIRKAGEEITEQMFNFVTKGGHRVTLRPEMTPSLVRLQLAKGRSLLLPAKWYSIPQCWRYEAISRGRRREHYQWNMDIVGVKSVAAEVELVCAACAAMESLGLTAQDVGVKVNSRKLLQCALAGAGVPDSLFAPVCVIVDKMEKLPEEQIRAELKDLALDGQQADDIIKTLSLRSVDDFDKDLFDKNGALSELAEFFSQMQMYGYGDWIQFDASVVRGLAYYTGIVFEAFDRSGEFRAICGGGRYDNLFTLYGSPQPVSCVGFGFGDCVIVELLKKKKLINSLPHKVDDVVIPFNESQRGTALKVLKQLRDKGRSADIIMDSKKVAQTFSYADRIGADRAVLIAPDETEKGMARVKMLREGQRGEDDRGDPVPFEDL
UniProt Q4DA54, 1-478: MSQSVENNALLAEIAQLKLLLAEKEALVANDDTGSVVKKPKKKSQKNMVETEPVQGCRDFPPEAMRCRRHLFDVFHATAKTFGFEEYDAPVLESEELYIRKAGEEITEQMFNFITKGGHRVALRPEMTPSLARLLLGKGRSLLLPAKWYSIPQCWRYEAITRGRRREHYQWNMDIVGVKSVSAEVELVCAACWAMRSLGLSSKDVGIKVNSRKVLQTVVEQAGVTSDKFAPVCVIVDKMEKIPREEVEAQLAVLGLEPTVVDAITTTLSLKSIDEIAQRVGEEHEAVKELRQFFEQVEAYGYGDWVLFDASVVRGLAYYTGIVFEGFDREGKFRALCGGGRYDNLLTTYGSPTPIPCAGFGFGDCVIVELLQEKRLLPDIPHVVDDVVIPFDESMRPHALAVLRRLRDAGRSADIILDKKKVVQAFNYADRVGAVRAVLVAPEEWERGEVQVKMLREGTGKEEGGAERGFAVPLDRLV

Values are the deposited “Percent Effect”, in %.
The controls that fix the scale are not given in the record; negative values are as filed.
The compounds are a random part of those screened.
Two or more numbers in one place are separate tests of the same structure; such repeats can differ widely.
A dash means the value is not listed here; it may have been measured.

ClpP1P2: 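Protease assay of ClpP1P2, read by the AMC dye that it sets free. Target: ClpP1P2, Mycobacterium tuberculosis (UniProt P9WPC5 and UniProt P9WPC3). Tested at 50 µM. Direction is inferred from only a few compounds that gave an IC50; most scored high, so higher reads as stronger inhibition. Most other retested compounds had strongly negative values. Of about 69,000 compounds tested this way, about 10 (0.015%) reached 50% or more in at least one test.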
Pks13 thioesterase: 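Polyketide synthase Pks13, Mycobacterium tuberculosis (UniProt I6X8D2). Enzyme assay of the thioesterase domain of polyketide synthase 13; the read-out is not stated. Compounds at 30 µM. The record gives no direction; the compounds picked for IC50 retests had high values, so higher reads as stronger inhibition. Size under these conditions: about 67,000 compounds, about 300 of them at 50% or above in at least one test.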
CoaBC: 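Enzyme assay of CoaBC with a phosphate dye (Biomol Green) read at 650 nm. Target: Coenzyme A biosynthesis protein CoaBC, Mycobacterium tuberculosis (UniProt P9WNZ1). Tested at 30 µM. Direction is inferred from only a few compounds that gave an IC50; most scored high, so higher reads as stronger inhibition. Most strong results did not repeat in a second test. Of about 67,000 compounds tested this way, about 40 (0.06%) reached 50% or more in at least one test.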
LiHisRS: 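Enzyme assay of histidyl-tRNA synthetase; the read-out is not stated. Target: Histidine-tRNA ligase, Leishmania infantum (UniProt A4I591). Compounds at 30 µM. Higher reads as stronger inhibition (inferred: compounds with an IC50 in retests scored well above the rest). The assay is labelled LdHisRS but filed under L. infantum. Size under these conditions: about 69,000 compounds, about 410 of them at 50% or above in at least one test.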
TcHisRS: 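Histidine-tRNA ligase, Trypanosoma cruzi CL Brener (UniProt Q4DA54). Enzyme assay of histidyl-tRNA synthetase; the read-out is not stated. Compounds at 30 µM. Direction is inferred from retests: higher values go with stronger inhibition. About 69,000 compounds were tested under these conditions; 0.045% (about 31) showed 50% or more at least once.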

| structure | ClpP1P2 | Pks13 thioesterase | CoaBC | LiHisRS | TcHisRS |
|---|---|---|---|---|---|
| `Fc1ccc(C2CN(c3ncnc4nc[nH]c34)CCO2)cc1` (stereo not given) | 6.322 | 15.12 | 3.418 | 7.5 | 2.484 |
| `Cc1ncsc1C(=O)N1CCCC(CO)(CC2CC2)C1` (stereo not given) | -5.935 | -0.9122 | -2.836 | 4.839 | -1.754 |
| `COC(=O)CCn1ccc(=O)c2cc(F)ccc21` | -12.46 | -6 | 1.646 | 17.5 | 2.484 |
| `CN(C(=O)c1ccc(OCC(F)F)nc1)c1ccc2c(c1)CCO2` | -7.006 | 3.867 | 11.29 | 8.772 | -4.202 |
| `Cc1ccc(C(=O)NC2CCN(Cc3nc(CC(C)C)no3)CC2)s1` | -2.675 | -0.4502 | 1.015 | 10.59 | 4.933 |
| `Cc1ccc2c(c1)CN(C(=O)c1cccs1)C(CN(C)C)CO2` (stereo not given) | -4.107 | - | 1.716 | 11.46 | 2.128 |
| `CCNc1cc2c(nn1)CCN(C(=O)c1cc3nc(C)ccc3o1)C2` | -0.5578 | 3.768 | 8.735 | 31.08 | 1.887 |
| `O=C(O)CCNC(=O)Cc1csc(-c2cccc(Cl)c2)n1` | -1.95 | -18.61 | 1.053 | 5.517 | 7.692 |
| `COC(=O)N1CCC2(CC1)N=C(CCC(C)C)NC2=O` | 2.58 | -21.88 | 15.84 | 9.375 | 0 |
| `Cc1nc(C)n(CC2CCCN2Cc2cnc(C)s2)n1` (stereo not given) | -5.781 | -5.002 | 13.61 | 14.88 | 3.361 |
| `Nc1nccc(NCc2cc3n(n2)CCCN(C(=O)C2CCC2)C3)n1` | 2.263 | -27.74 | 2.366 | 7.619 | 2.479 |
| `O=C1CO[C@@H]2CN(Cc3cccs3)C[C@H]2N1CC1CC1` | -4.7 | -22.49 | 1.673 | 19.61 | 3.825 |
| `COCCn1cc(NC(=O)NCC(C)N2CCOCC2)cn1` (stereo not given) | -10.5 | -32.54 | 0.8547 | 3.419 | 3.784 |
| `COc1ccc(C)cc1-n1cnnc1C1CC(=O)N(C)C1` (stereo not given) | 8.376 | -41.77 | 12.61 | 14.53 | 4.444 |
| `COc1ccc(OC)c(CN(C)c2ncc(S(N)(=O)=O)s2)c1` | 0.8495 | -15.62 | 6.483 | 21.93 | 10.34 |
| `O=C(C1CCOCC1)N1CCc2ncnc(-c3ccc(F)cc3)c2CC1` | -3.227 | -19.04 | 0.6345 | 3.774 | 2.703 |
| `CCC(Nc1ncnc2sc(C(=O)O)c(C)c12)c1ccnn1C` (stereo not given) | -7.521 | -13.71 | 3.922 | 2.222 | 7.143 |
| `CCC(C)CN1CCC(n2cc(C3CCCCC3)nn2)CC1` (stereo not given) | -10.4 | -2.591 | 4.37 | 11.46 | -2.235 |
| `COc1ccc2c(c1)CCN(CCC(=O)NC1CCCCC1)CC2` | 1.523 | -18.86 | -11.3 | 25 | 5 |
| `CC(C)N(C)C(=O)c1ccc(CNc2ncc(C#N)cc2Cl)cc1` | -8.839 | -11.97 | 13.15 | 21.92 | -3.158 |
| `COc1cccc(CN(C)Cc2cc(C#N)ccc2F)c1OC` | -9.23 | -14.86 | 3.024 | 6.061 | 1.087 |
| `CC/C(C)=C/CCN1CCN(C)C2(CCNC(=O)CC2)C1` (stereo not given) | -3.418 | -32.87 | -2.4 | -25.64 | 2.299 |
| `Cc1ccccc1CC(=O)N1C[C@H]2CC[C@@H]1CN(Cc1cccnc1)C2` | -6.926 | -12.92 | -4.733 | 10.75 | -1.571 |
| `CC(O)c1cn(CC2CCN(C(=O)c3cccc(N(C)C)c3)CC2)nn1` (stereo not given) | 25.27 | 20.17 | 13.29 | 44.17 | 3.865 |
| `CCOc1ccc2cc(C(=O)N3CCn4c(CC)nnc4C3)[nH]c2c1` | -11.05 | 2.622 | 2.452 | 13.91 | 6.322 |
| `CCn1nc2c(cc1=O)CN(Cc1nnc(C3CC3)o1)CC2` | -1.623 | 0.1134 | -0.6316 | 22.64 | 1.667 |
| `O=C(CSC1CCCC1)N1CCN(C(=O)C2CC2c2ccccc2)CC1` (stereo not given) | -5.024 | -24.24 | 2.132 | 19.35 | 8.808 |
| `O=C(CCN1CCC(c2cc3ccccc3[nH]2)CC1)N1CCOCC1` | 1.66 | -12.85 | -17.77 | 8.621 | 5.759 |
| `Cc1cc2n(n1)[C@@H](C(F)(F)F)C[C@@H](C1CCCN(C(=O)C(C)C)C1)N2` (stereo not given in full) | -3.46 | 4.096 | -0.4866 | -47.37 | 8.955 |
| `Cc1ccc2nc(C3CCCN3Cc3nnc(C)s3)[nH]c2c1` (stereo not given) | 16 | -4.537 | -1.542 | 4.167 | -6.704 |
| `CN(Cc1ccco1)C(=O)[C@H]1CSCN1C(=O)OC(C)(C)C` | 3.456 | - | 5.175 | 13.64 | 0 |
| `Cc1nc(CN2CCc3ncnc(-c4ccncc4)c3CC2)cs1` | 4.516 | -47.71 | -3.046 | -2.941 | 2.956 |
| `Cn1ccc2cc(CC3COCCN(C(=O)c4cccnc4)C3)ccc21` (stereo not given) | 3.611 | -5.986 | -2.219 | -5.634 | 2.273 |
| `O=C(NCc1ccccn1)[C@@]12CCO[C@@H]1CCN(C1CCCC1)C2` | -6.257 | 0.7186 | 0.4938 | 8.182 | 3.175 |
| `Cn1cc(CN2CCCC3(CCN(c4nncs4)C3)C2)cn1` (stereo not given) | -12.66 | -6.776 | 1.322 | 9.434 | 5.932 |
| `CCO[C@H]1CC[C@H]2[C@@H]1OCCN2C(=O)COc1ccccc1` | 2.395 | -35.18 | 0.9877 | 19.09 | 6.349 |
| `O=C(N1CCOCC(O)C1)C1(c2ccc(Cl)cc2)CCC1` (stereo not given) | 0.8744 | -2.721 | -1.38 | 10.17 | 5.366 |
| `COc1cc(NC(=O)c2ccc(F)cc2Cl)c(C(=O)N(C)C)cc1OC` | 3.365 | 3.695 | 6.198 | 15.18 | 11.67 |
| `CC(C(=O)N1CCc2sccc2C1)N1CCCN(C2CC2)CC1` (stereo not given) | 7.601 | -26.17 | 8.423 | -34.29 | 2.041 |
| `Cc1cc(C(=O)N2CCCCC2C)ccc1NCC(=O)N1CCOCC1` (stereo not given) | 22.81 | -17.32 | 4.578 | 32.88 | -2.29 |
| `COc1ccnc(N2CCN(C(C)c3nc(C)no3)CC2)n1` (stereo not given) | -4.362 | -4.842 | - | -0.8333 | 11.84 |
| `O=S(=O)(NCC1CCN(c2cnccn2)CC1)c1cccs1` | -4.051 | 45.49 | 4.611 | 8.219 | 16 |
| `O=C1CN(Cc2occc2C(=O)NCCc2ccc(F)cc2)CCN1` | -8.062 | 3.029 | 9.794 & 35.68 | 12.36 | 4.663 |
| `O=C1NCCCc2[nH]c(C3CCCN(C(=O)C4CC4)C3)nc21` (stereo not given) | 6.587 | -8.596 | 3.68 | 8.197 | 2.4 |

4 of the entries, repeated:

structure	ClpP1P2	Pks13 thioesterase	CoaBC	LiHisRS	TcHisRS
O=C(C1CCOCC1)N1CCc2ncnc(-c3ccc(F)cc3)c2CC1	-3.227	-19.04	0.6345	3.774	2.703
COc1cc(NC(=O)c2ccc(F)cc2Cl)c(C(=O)N(C)C)cc1OC	3.365	3.695	6.198	15.18	11.67
Cc1ccccc1CC(=O)N1C[C@H]2CC[C@@H]1CN(Cc1cccnc1)C2	-6.926	-12.92	-4.733	10.75	-1.571
Cc1cc(C(=O)N2CCCCC2C)ccc1NCC(=O)N1CCOCC1 (stereo not given)	22.81	-17.32	4.578	32.88	-2.29

From ChEMBL document CHEMBL3988442, “University of Dundee, Small-Polar-MMV Screening Library” (2021).